One substance from PMC11984406 can be followed below.

Sequences of proteins named here, by UniProt entry; tags and fusion partners are left off.
UniProt P35222: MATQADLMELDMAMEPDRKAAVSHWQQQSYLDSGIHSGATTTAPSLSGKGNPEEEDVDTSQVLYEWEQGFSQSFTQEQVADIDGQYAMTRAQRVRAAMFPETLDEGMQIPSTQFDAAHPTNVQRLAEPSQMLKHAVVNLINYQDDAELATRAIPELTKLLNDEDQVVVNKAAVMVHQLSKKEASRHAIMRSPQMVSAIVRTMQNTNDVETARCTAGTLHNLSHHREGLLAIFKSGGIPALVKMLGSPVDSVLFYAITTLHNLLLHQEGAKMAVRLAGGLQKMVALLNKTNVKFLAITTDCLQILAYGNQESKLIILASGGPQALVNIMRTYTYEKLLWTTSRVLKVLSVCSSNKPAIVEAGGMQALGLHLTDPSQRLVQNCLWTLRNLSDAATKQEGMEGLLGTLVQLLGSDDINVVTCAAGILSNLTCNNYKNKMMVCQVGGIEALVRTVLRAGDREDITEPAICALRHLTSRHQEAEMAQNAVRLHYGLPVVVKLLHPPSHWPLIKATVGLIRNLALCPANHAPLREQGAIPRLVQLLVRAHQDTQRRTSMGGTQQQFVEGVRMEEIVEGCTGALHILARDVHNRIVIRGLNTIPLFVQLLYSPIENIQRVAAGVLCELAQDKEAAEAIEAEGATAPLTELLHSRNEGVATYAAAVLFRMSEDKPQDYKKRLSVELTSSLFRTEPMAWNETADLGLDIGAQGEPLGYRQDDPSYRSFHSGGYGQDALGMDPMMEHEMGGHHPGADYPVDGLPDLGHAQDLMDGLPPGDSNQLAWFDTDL

Results are given in words; binding and its absence hold for the method and conditions named. Binding seen in cells or lysates may run through a third protein. Here binding means that the protein was enriched with, or labelled near, the bait; the list need not be complete. Where a sequence is shown, tags or fusion partners need not be part of it.

This assay deals with T1, GFP-RNF138 (UniProt Q8WVD3).
T1 sequence: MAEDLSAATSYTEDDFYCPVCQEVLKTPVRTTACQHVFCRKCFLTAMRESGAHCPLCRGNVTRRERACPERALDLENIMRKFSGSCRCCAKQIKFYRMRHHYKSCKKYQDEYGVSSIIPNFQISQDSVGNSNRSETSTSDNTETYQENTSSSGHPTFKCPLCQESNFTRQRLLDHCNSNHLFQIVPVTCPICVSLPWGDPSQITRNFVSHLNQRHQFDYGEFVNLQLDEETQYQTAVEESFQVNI
Nature of the assay: affinity purification with mass spectrometry; co-immunoprecipitation of RNF138 followed by mass spectrometry (Co-IP/MS); bait construct and cells not told for this experiment.

Turning to β-catenin (from UniProt P35222 1-781), the binding result is reported as “binds”.
